Earlier results as cited in patent publication US9932637B2, “Genetic polymorphisms associated with cardiovascular disorders and drug response, methods of detection and uses thereof” (CELERA CORPORATION, priority 2003, dated 2018).
At least one structure is not confirmed: it was looked up by name or label, or the drawing left a doubt.

System: hypercholesterolemic subjects
Conditions: WOSCOPS, 5 year; cited from earlier work

In the case of `CC[C@H](C)C(=O)O[C@H]1C[C@H](O)C=C2C=C[C@H](C)[C@H](CC[C@@H](O)C[C@@H](O)CC(=O)O)[C@H]21` [pravastatin], the “decrease in clinical events compared to placebo” value is listed as 29% and the “reduction in LDL-cholesterol (LDL-C)” value is listed as 26%.
